Source: PubChem BioAssay AID504804 (Drosophila RNAi Screening Center, 2011)
The deposit covers about 19,000 reagents; below is an unselected part of those with a known target gene and a result. In the full data, 47 (0.25%) were called active. 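Signals are raw, not normalised; exact z-scores behind calls not deposited; actives needed confirmation, so some wells reaching 2 SD are inactive.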 A plus sign joins genes that one reagent is predicted to hit. No sequences are given here.

- Screen: 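Fly genes whose loss lessens doxorubicin-driven cell death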 (primary screen)
- Cells: Drosophila Kc cells
- Reagents: long dsRNA against Drosophila genes, 0.5 µg dsRNA per well
- Timing: 96 h (48 h knock-down, then 48 h drug)
- Conditions: doxorubicin 5 µg/ml for 48 h, added 48 h after dsRNA
- Measured: 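Luminescent ATP counts per replicate, not normalised, reflecting viable cells after 48 h dsRNA knock-down followed by 48 h of 5 µg/ml doxorubicin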
- Reading the numbers: raw ATP luminescence: higher = more viable cells, protection from doxorubicin
- Hit rule: 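z-score of 2 or more over plate mean in both duplicates, retained only when retests and separate dsRNAs confirm the protection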

| gene | DRSC id | raw ATP luminescence, replicate 1 | raw ATP luminescence, replicate 2 | Outcome |
| --- | --- | --- | --- | --- |
| SMC6 (GeneID 42876) | DRSC15829 | 96610 | 91110 | inactive |
| Bap55 (GeneID 36956) | DRSC07000 | 62640 | 67430 | inactive |
| CG3534 (GeneID 42047) | DRSC15494 | 66840 | 53250 | inactive |
| SmydA-7 (GeneID 36916) | DRSC07340 | 53290 | 62253 | inactive |
| CG31231 (GeneID 318638) | DRSC13308 | 2.34e5 | 2.07e5 | inactive |
| CG31882 (GeneID 319000) | DRSC01084 | 2.75e5 | 3.29e5 | inactive |
| lark (GeneID 38811) | DRSC11362 | 46760 | 39283 | inactive |
| CG16922 (retired record) (GeneID 32030) | DRSC19758 | 1.29e5 | 1.24e5 | inactive |
| CG8777 (GeneID 35921) | DRSC07263 | 67487 | 61750 | inactive |
| CG33120 (GeneID 326260) | DRSC02073 | 99407 | 93007 | inactive |
| CG3592 (GeneID 31282) | DRSC18315 | 58100 | 54280 | inactive |
| CG14367 (GeneID 41676) | DRSC14829 | 88280 | 81490 | inactive |
| Neb-cGP (GeneID 50417) | DRSC17991 | 3.11e5 | 3.08e5 | inactive |
| HIPP1 (GeneID 40302) | DRSC11748 | 20393 | 11917 | inactive |
| CG17027 (GeneID 39742) | DRSC10238 | 21480 | 31130 | inactive |
| CG34425 (GeneID 5740837) | DRSC12210 | 60873 | 57670 | inactive |
| CG31287 (GeneID 318663) | DRSC13138 | 1.67e5 | 1.56e5 | inactive |
| CG13857 (GeneID 42627) | DRSC14707 | 73640 | 61730 | inactive |
| Gapdh2 (GeneID 32545) | DRSC20246 | 3.50e5 | 2.65e5 | inactive |
| speck (GeneID 37867) | DRSC04608 | 61897 | 58617 | inactive |
| CG34406 (retired record) (GeneID 33536) | DRSC00523 | 1.10e5 | 78820 | inactive |
| CG34406 (retired record) (GeneID 33536) | DRSC00606 | 19317 | 18773 | inactive |
| CG9372 (GeneID 40137) | DRSC11068 | 68287 | 76433 | inactive |
| ND-B14.7 (GeneID 37385) | DRSC04544 | 40110 | 39313 | inactive |
| Delta (GeneID 42313) | DRSC16648 | 57330 | 65360 | inactive |
| Msp300 (GeneID 3771968) | DRSC00854 | 2.99e5 | 2.69e5 | inactive |
| Msp300 (GeneID 3771968) | DRSC00856 | 3.01e5 | 3.03e5 | inactive |
| Msp300 (GeneID 3771968) | DRSC00857 | 2.91e5 | 2.71e5 | inactive |
| Msp300 (GeneID 3771968) | DRSC00858 | 2.81e5 | 2.72e5 | inactive |
| Msp300 (GeneID 3771968) | DRSC02360 | 21627 | 30873 | inactive |
| Msp300 (GeneID 3771968) | DRSC03369 | 95383 | 86570 | inactive |
| Msp300 (GeneID 3771968) | DRSC03370 | 26737 | 27217 | inactive |
| CG43999 (GeneID 42827) | DRSC14605 | 58760 | 56940 | inactive |
| CG13855 (GeneID 42629) | DRSC14705 | 56740 | 58900 | inactive |
| gsb (GeneID 38005) | DRSC04692 | 39880 | 52227 | inactive |
| CG31093 (GeneID 43116) | DRSC15689 | 71540 | 61900 | inactive |
| Art9 (GeneID 41698) | DRSC16584 | 66710 | 67830 | inactive |
| Ir7c (GeneID 31692) | DRSC18007 | 29940 | 33090 | inactive |
| hbn (GeneID 47894) | DRSC04082 | 20467 | 28613 | inactive |
| hbn (GeneID 47894) | DRSC04238 | 67727 | 52170 | inactive |
| hbn (GeneID 47894) | DRSC04239 | 51497 | 58140 | inactive |
| CG32032 (GeneID 192535) | DRSC08961 | 1.38e5 | 1.53e5 | inactive |
| Cdk5 (GeneID 36727) | DRSC07359 | 84613 | 56010 | inactive |
| CG14770 (GeneID 31085) | DRSC17947 | 49030 | 70450 | inactive |
| CG14932 (GeneID 34589) | DRSC02414 | 19747 | 39850 | inactive |
| CG17065 (GeneID 33026) | DRSC20544 | 2.46e5 | 2.63e5 | inactive |
| CD98hc (GeneID 40941) | DRSC15453 | 69010 | 72487 | inactive |
| Atg1 (GeneID 39454) | DRSC09809 | 41057 | 44280 | inactive |
| Atg1 (GeneID 39454) | DRSC09810 | 89677 | 83740 | inactive |
| psh (GeneID 32832) | DRSC19990 | 3.47e5 | 3.51e5 | inactive |
| CG5715 (GeneID 42895) | DRSC15860 | 62310 | 60870 | inactive |
| mip130 (GeneID 31153) | DRSC18575 | 57670 | 61870 | inactive |
| CG32037 (GeneID 326183) | DRSC10363 | 98927 | 93607 | inactive |
| CG1889 + CG43386 | DRSC17979 | 3.44e5 | 3.44e5 | inactive |
| MICU1 (GeneID 33999) | DRSC02752 | 1.13e5 | 73053 | inactive |
| pHCl-2 (GeneID 43703) | DRSC14306 | 45700 | 54600 | inactive |
| Coq6 (GeneID 33777) | DRSC03040 | 1.12e5 | 64577 | inactive |
| Ufd1 (GeneID 39254) | DRSC10607 | 38197 | 38463 | inactive |
| ato (GeneID 40975) | DRSC16904 | 54473 | 48660 | inactive |
| CG33757 (GeneID 3772602) | DRSC05159 | 84140 | 99853 | inactive |
| mRF1 (GeneID 34720) | DRSC02880 | 86630 | 63007 | inactive |
| CG31036 (GeneID 43539) | DRSC15055 | 43060 | 34940 | inactive |
| CG31036 (GeneID 43539) | DRSC15057 | 68190 | 39270 | inactive |
| CG31735 (GeneID 318922) | DRSC01518 | 2.75e5 | 2.28e5 | inactive |
| tkv (GeneID 33753) | DRSC00860 | 2.41e5 | 2.68e5 | inactive |
| tkv (GeneID 33753) | DRSC03623 | 1.15e5 | 73933 | inactive |
| CG7329 (GeneID 34457) | DRSC03046 | 27073 | 71760 | inactive |
| Scamp (GeneID 32470) | DRSC20286 | 2.60e5 | 2.21e5 | inactive |
| CG9240 (GeneID 32505) | DRSC20177 | 3.73e5 | 3.20e5 | inactive |
| Ccdc58 (GeneID 40159) | DRSC10218 | 27537 | 21300 | inactive |
| sls (GeneID 44013) | DRSC08528 | 54000 | 57293 | inactive |
| CG17271 (GeneID 42463) | DRSC15210 | 68260 | 63130 | inactive |
| CG9331 (GeneID 35347) | DRSC03206 | 65173 | 68657 | inactive |
| Snap29 (GeneID 37774) | DRSC04721 | 39593 | 53353 | inactive |
| Gpo1 (GeneID 47611) | DRSC07128 | 46967 | 58843 | inactive |
| Pdcd4 (GeneID 32337) | DRSC19360 | 1.84e5 | 1.90e5 | inactive |
| Recs1 (GeneID 41724) | DRSC16545 | 1.15e5 | 76310 | inactive |
| CG3491 (GeneID 34870) | DRSC01934 | 63363 | 64780 | inactive |
| Vha68-1 (GeneID 45668) | DRSC03470 | 55143 | 90517 | inactive |
| lmd (GeneID 42717) | DRSC15618 | 25350 | 25690 | inactive |
| CR30374 (GeneID 10178922) | DRSC05080 | 95077 | 1.05e5 | inactive |
| Hsf (GeneID 37068) | DRSC07443 | 54587 | 59067 | inactive |
| FER (GeneID 41118) | DRSC12735 | 70860 | 47237 | inactive |
| FER (GeneID 41118) | DRSC16673 | 62793 | 50163 | inactive |
| Mondo (GeneID 35402) | DRSC02667 | 58570 | 51467 | inactive |
| Mondo (GeneID 35402) | DRSC02668 | 47890 | 42563 | inactive |
| Abd-B (GeneID 47763) | DRSC14098 | 78990 | 70200 | inactive |
| Abd-B (GeneID 47763) | DRSC14337 | 69820 | 64820 | inactive |
| Tti1 (GeneID 41189) | DRSC15163 | 57190 | 60410 | inactive |
| Arf4 (GeneID 43823) | DRSC17195 | 68110 | 75810 | inactive |
| CG1620 (GeneID 35678) | DRSC06603 | 68020 | 47657 | inactive |
| PPO1 (GeneID 37044) | DRSC05929 | 67680 | 57760 | inactive |
| CG5342 (GeneID 41389) | DRSC15776 | 50200 | 50603 | inactive |
| l(3)80Fj (GeneID 3355040) | DRSC20986 | 2.04e5 | 1.92e5 | inactive |
| l(3)80Fj (GeneID 3355040) | DRSC20989 | 2.87e5 | 2.90e5 | inactive |
| yuri (GeneID 34894) | DRSC01453 | 2.81e5 | 2.77e5 | inactive |
| yuri (GeneID 34894) | DRSC01454 | 2.52e5 | 2.10e5 | inactive |
| yuri (GeneID 34894) | DRSC01943 | 64977 | 72820 | inactive |
| yuri (GeneID 34894) | DRSC01972 | 1.02e5 | 65527 | inactive |
| CG11106 (GeneID 32062) | DRSC19381 | 3.50e5 | 3.53e5 | inactive |
| CG30496 (GeneID 246652) | DRSC06805 | 69277 | 45913 | inactive |
| CG32801 (GeneID 31152) | DRSC17964 | 65360 | 58490 | inactive |
| BRWD3 (GeneID 42898) | DRSC15369 | 38230 | 40370 | inactive |
| BRWD3 (GeneID 42898) | DRSC16032 | 52920 | 52600 | inactive |
| Lar (GeneID 35259) | DRSC01707 | 2.65e5 | 2.41e5 | inactive |
| Lar (GeneID 35259) | DRSC03361 | 83280 | 61467 | inactive |
| CG10126 (GeneID 41579) | DRSC14191 | 55660 | 27270 | inactive |

Laid out differently: 16 of the entries above.
{"gene":"Arf4 (GeneID 43823)","DRSC id":"DRSC17195","raw ATP luminescence, replicate 1":68110,"raw ATP luminescence, replicate 2":75810,"Outcome":"inactive"}
{"gene":"CG1620 (GeneID 35678)","DRSC id":"DRSC06603","raw ATP luminescence, replicate 1":68020,"raw ATP luminescence, replicate 2":47657,"Outcome":"inactive"}
{"gene":"PPO1 (GeneID 37044)","DRSC id":"DRSC05929","raw ATP luminescence, replicate 1":67680,"raw ATP luminescence, replicate 2":57760,"Outcome":"inactive"}
{"gene":"CG5342 (GeneID 41389)","DRSC id":"DRSC15776","raw ATP luminescence, replicate 1":50200,"raw ATP luminescence, replicate 2":50603,"Outcome":"inactive"}
{"gene":"l(3)80Fj (GeneID 3355040)","DRSC id":"DRSC20986","raw ATP luminescence, replicate 1":2.04e5,"raw ATP luminescence, replicate 2":1.92e5,"Outcome":"inactive"}
{"gene":"l(3)80Fj (GeneID 3355040)","DRSC id":"DRSC20989","raw ATP luminescence, replicate 1":2.87e5,"raw ATP luminescence, replicate 2":2.90e5,"Outcome":"inactive"}
{"gene":"yuri (GeneID 34894)","DRSC id":"DRSC01453","raw ATP luminescence, replicate 1":2.81e5,"raw ATP luminescence, replicate 2":2.77e5,"Outcome":"inactive"}
{"gene":"yuri (GeneID 34894)","DRSC id":"DRSC01454","raw ATP luminescence, replicate 1":2.52e5,"raw ATP luminescence, replicate 2":2.10e5,"Outcome":"inactive"}
{"gene":"yuri (GeneID 34894)","DRSC id":"DRSC01943","raw ATP luminescence, replicate 1":64977,"raw ATP luminescence, replicate 2":72820,"Outcome":"inactive"}
{"gene":"yuri (GeneID 34894)","DRSC id":"DRSC01972","raw ATP luminescence, replicate 1":1.02e5,"raw ATP luminescence, replicate 2":65527,"Outcome":"inactive"}
{"gene":"CG11106 (GeneID 32062)","DRSC id":"DRSC19381","raw ATP luminescence, replicate 1":3.50e5,"raw ATP luminescence, replicate 2":3.53e5,"Outcome":"inactive"}
{"gene":"CG30496 (GeneID 246652)","DRSC id":"DRSC06805","raw ATP luminescence, replicate 1":69277,"raw ATP luminescence, replicate 2":45913,"Outcome":"inactive"}
{"gene":"CG32801 (GeneID 31152)","DRSC id":"DRSC17964","raw ATP luminescence, replicate 1":65360,"raw ATP luminescence, replicate 2":58490,"Outcome":"inactive"}
{"gene":"BRWD3 (GeneID 42898)","DRSC id":"DRSC15369","raw ATP luminescence, replicate 1":38230,"raw ATP luminescence, replicate 2":40370,"Outcome":"inactive"}
{"gene":"BRWD3 (GeneID 42898)","DRSC id":"DRSC16032","raw ATP luminescence, replicate 1":52920,"raw ATP luminescence, replicate 2":52600,"Outcome":"inactive"}
{"gene":"Lar (GeneID 35259)","DRSC id":"DRSC01707","raw ATP luminescence, replicate 1":2.65e5,"raw ATP luminescence, replicate 2":2.41e5,"Outcome":"inactive"}
